# From US20090215081A1
# Protein sequences, listed by entry. Tags and fused reporters are not part of them. Lines headed by an entry give the natural chain unless they say otherwise; changes in a name come on top.
# UniProt P35222: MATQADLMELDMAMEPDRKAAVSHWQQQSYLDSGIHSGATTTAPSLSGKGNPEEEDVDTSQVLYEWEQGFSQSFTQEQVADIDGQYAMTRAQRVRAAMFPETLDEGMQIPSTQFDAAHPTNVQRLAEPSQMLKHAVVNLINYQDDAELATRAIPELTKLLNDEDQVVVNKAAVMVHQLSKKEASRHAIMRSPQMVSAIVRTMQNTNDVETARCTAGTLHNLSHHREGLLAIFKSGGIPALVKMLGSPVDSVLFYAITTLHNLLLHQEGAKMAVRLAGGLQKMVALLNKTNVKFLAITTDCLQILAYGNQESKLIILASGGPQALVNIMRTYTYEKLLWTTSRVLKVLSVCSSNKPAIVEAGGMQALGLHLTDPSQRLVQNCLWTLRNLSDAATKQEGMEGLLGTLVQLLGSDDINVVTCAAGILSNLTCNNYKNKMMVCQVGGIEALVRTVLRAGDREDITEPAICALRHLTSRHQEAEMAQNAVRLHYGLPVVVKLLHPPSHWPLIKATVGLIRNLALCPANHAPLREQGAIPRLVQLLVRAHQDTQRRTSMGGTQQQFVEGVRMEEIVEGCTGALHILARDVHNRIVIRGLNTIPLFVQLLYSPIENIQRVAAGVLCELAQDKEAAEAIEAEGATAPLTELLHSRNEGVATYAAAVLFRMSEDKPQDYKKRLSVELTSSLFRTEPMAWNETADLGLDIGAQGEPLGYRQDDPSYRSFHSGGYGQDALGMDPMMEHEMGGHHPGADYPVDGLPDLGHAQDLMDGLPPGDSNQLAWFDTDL
# UniProt Q9NQB0: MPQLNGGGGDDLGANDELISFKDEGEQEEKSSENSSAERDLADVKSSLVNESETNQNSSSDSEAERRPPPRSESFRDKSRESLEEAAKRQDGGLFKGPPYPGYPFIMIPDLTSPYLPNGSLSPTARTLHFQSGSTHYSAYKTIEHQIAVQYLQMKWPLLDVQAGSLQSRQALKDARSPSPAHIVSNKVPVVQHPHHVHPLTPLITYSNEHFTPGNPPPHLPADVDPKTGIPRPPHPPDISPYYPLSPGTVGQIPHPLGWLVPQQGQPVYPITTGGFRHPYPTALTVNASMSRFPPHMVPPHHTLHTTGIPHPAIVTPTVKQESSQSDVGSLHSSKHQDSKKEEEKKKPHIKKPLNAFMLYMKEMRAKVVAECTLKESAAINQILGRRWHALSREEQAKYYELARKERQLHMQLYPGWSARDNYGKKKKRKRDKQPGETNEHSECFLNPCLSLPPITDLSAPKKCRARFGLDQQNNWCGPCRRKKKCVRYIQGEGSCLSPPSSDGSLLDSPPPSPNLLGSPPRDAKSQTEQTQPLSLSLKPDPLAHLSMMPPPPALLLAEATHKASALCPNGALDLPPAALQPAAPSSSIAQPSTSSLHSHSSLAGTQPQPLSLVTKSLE
# UniProt Q9UKE5: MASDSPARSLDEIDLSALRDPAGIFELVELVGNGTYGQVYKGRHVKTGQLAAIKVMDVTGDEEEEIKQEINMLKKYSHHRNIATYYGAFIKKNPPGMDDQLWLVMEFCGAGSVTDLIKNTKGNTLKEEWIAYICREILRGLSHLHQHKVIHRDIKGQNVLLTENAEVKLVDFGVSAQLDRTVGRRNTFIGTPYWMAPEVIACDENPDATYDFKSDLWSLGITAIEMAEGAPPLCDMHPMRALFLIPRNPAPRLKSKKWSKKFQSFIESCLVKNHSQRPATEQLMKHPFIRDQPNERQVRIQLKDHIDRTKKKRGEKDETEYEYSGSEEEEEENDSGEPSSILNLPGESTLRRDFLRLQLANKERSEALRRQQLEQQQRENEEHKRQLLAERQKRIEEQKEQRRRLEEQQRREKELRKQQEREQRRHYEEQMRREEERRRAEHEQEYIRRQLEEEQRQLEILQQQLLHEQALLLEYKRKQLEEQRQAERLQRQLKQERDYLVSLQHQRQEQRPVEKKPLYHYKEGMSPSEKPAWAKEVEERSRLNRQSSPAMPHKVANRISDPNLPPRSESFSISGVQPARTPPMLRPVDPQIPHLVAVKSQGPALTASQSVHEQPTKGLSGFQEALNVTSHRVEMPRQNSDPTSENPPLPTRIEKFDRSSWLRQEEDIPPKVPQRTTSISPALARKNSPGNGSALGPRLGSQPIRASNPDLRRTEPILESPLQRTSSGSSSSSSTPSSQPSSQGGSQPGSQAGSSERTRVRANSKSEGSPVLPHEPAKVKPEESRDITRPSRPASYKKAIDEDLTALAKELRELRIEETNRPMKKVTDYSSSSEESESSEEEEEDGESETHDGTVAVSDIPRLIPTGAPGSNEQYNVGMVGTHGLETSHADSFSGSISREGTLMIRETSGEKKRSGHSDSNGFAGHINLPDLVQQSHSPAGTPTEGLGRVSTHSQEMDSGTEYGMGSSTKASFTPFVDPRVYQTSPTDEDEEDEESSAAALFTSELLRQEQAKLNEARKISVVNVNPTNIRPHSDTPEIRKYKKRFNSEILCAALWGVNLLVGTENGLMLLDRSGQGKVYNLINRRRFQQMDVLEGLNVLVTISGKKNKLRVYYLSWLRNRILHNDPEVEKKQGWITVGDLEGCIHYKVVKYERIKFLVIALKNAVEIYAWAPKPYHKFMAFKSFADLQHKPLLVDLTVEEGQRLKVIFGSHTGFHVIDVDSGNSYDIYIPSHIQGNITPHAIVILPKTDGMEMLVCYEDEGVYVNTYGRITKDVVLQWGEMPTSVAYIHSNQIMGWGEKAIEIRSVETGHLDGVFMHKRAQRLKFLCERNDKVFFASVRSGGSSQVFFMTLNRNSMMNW
# These are yes or no findings as the source states them, for the method shown. In cells and extracts the contact can be indirect. Some results given as binding are weak or reduced against the parent protein; the word gives no strength.
# What was measured:
# [1] = biological target: β-catenin/TCF4 transcription complex (human) (UniProt P35222+Q9NQB0); assay: co-immunoprecipitation and immunoblot, DLD-1 and HCT-116 cell extracts (figure legend)
# [2] = biological target: T-cell factor-4 (TCF4), endogenous, in extracts of DLD-1 and HCT-116 cells (human) (UniProt Q9NQB0); assay: co-immunoprecipitation with anti-TCF4 monoclonal antibody, immunoblot with anti-TNIK; DLD-1 and HCT-116 cell extracts
# [3] = biological target: TRAF2 and NCK interacting kinase (TNIK), endogenous, in extracts of DLD-1 and HCT-116 cells (human) (UniProt Q9UKE5); assay: co-immunoprecipitation with anti-TNIK rabbit polyclonal antibody, immunoblot with anti-TCF4; DLD-1 and HCT-116 cell extracts
# [4] = biological target: T-cell factor-4 (TCF4), endogenous, in extracts of DLD-1 and HCT-116 cells (human) (UniProt Q9NQB0); assay: co-immunoprecipitation (anti-HA / anti-TCF4 monoclonal antibodies) and immunoblot; extracts of transfected DLD-1 and HCT-116 cells
substance,measurement,setting,value
"TRAF2 and NCK interacting kinase (TNIK), endogenous, in extracts of DLD-1 and HCT-116 cells (from UniProt Q9UKE5 1-1360) (enzyme)",binding,[1],binds
same,binding,[2],binds
"T-cell factor-4 (TCF4), endogenous, in extracts of DLD-1 and HCT-116 cells (from UniProt Q9NQB0 1-619)",binding,[3],binds
"HA-TNIK, wild-type human TNIK full length expressed from pCIneo-HA-TNIK (from UniProt Q9UKE5 1-1360) (enzyme)",binding,[4],binds
